# Measured values reported in the supplement of paper PMC8728848.
# The other results are listed elsewhere or left out.
# B1: LlpA (Arthrobacter sp) (protein)
# chain: MGSSHHHHHHSSGLVPRGSHMTLHPETALRPGAAATSPNSRYRLLYQTDGNLVLYGPDGPLWDSGTNGHGAGACIMQADGNLVLYGPNDEYVWDTETDNNPGSRLVIQDDGNAVIYRPDGSPLWATETCQPPGSADSHVLQSGSTLTPTHGIRSANGLYGLLYQTDGNLVFYGPDGPLWDSGTNGRGAGACIMQPDGNLVLYGPHDEYVWDTETDNNPGSRLVIQDDGNAVIYRPDGNPTWVTGTH
# Assays:
# Experiment in all cases: glycan array binding signal (z-score within array); higher = stronger binding
# Conditions in all cases: glycan notation: IUPAC condensed, linker removed
# [1] = biological target: Neu5Ac(a2-6)GlcNAc(b1-4)GlcNAc(b1-4)GlcNAc
# Method in brief: (§1)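 Negative Z-scores can be read as non-binding. The Z-score is calculated within each array and then averaged across arrays of one protein sequence at different concentrations or buffers and across linkers. Arrays, 3228 in all, were curated from the Consortium for Functional Glycomics database and kept only where the protein sequence was available.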
# [2] = biological target: Neu5Ac(a2-8)Neu5Ac
# Method in brief: as §1
# [3] = biological target: Neu5Ac(a2-8)Neu5Ac(a2-3)Gal(b1-3)GalNAc(b1-4)[Neu5Ac(a2-3)]Gal(b1-4)Glc
# Method in brief: as §1
# [4] = biological target: Neu5Ac(a2-8)Neu5Ac(a2-3)Gal(b1-3)GalNAc(b1-4)[Neu5Ac(a2-8)Neu5Ac(a2-3)]Gal(b1-4)Glc
# Method in brief: as §1
# [5] = biological target: Neu5Ac(a2-8)Neu5Ac(a2-3)Gal(b1-4)Glc
# Method in brief: as §1
# [6] = biological target: Neu5Ac(a2-8)Neu5Ac(a2-3)Gal(b1-4)GlcNAc
# Method in brief: as §1
# [7] = biological target: Neu5Ac(a2-8)Neu5Ac(a2-3)[Gal(b1-3)GalNAc(b1-4)]Gal(b1-4)Glc
# Method in brief: as §1
# [8] = biological target: Neu5Ac(a2-8)Neu5Ac(a2-3)[GalNAc(b1-4)]Gal(b1-4)Glc
# Method in brief: as §1
# [9] = biological target: Neu5Ac(a2-8)Neu5Ac(a2-8)Neu5Ac
# Method in brief: as §1
# [10] = biological target: Neu5Ac(a2-8)Neu5Ac(a2-8)Neu5Ac(a2-3)Gal(b1-4)Glc
# Method in brief: as §1
# [11] = biological target: Neu5Ac(a2-8)Neu5Ac(a2-8)Neu5Ac(a2-3)[Gal(b1-3)GalNAc(b1-4)]Gal(b1-4)Glc
# Method in brief: as §1
# [12] = biological target: Neu5Ac(a2-8)Neu5Ac(a2-8)Neu5Ac(a2-3)[GalNAc(b1-4)]Gal(b1-4)Glc
# Method in brief: as §1
# [13] = biological target: Neu5Ac(a2-8)Neu5Ac(a2-8)Neu5Ac(a2-8)Neu5Ac(a2-3)[GalNAc(b1-4)]Gal(b1-4)Glc
# Method in brief: as §1
# [14] = biological target: Neu5Ac(a2-8)Neu5Gc(a2-3)Gal(b1-4)GlcNAc
# Method in brief: as §1
# [15] = biological target: Neu5Ac(b2-6)Gal(b1-4)GlcNAc
# Method in brief: as §1
# [16] = biological target: Neu5Ac(b2-6)GalNAc
# Method in brief: as §1
# [17] = biological target: Neu5Ac9Ac(a2-3)Gal(b1-3)GlcNAc
# Method in brief: as §1
# [18] = biological target: Neu5Ac9Ac(a2-3)Gal(b1-4)GlcNAc
# Method in brief: as §1
# [19] = biological target: Neu5Ac9Ac(a2-6)Gal(b1-4)GlcNAc
# Method in brief: as §1
# [20] = biological target: Neu5Gc(a2-3)Gal(b1-3)GlcNAc
# Method in brief: as §1
# [21] = biological target: Neu5Gc(a2-3)Gal(b1-3)[Fuc(a1-4)]GlcNAc
# Method in brief: as §1
# [22] = biological target: Neu5Gc(a2-3)Gal(b1-4)Glc
# Method in brief: as §1
# [23] = biological target: Neu5Gc(a2-3)Gal(b1-4)GlcNAc
# Method in brief: as §1
# [24] = biological target: Neu5Gc(a2-3)Gal(b1-4)GlcNAc(b1-3)Gal(b1-4)GlcNAc(b1-2)Man(a1-3)[Neu5Gc(a2-3)Gal(b1-4)GlcNAc(b1-3)Gal(b1-4)GlcNAc(b1-2)Man(a1-6)]Man(b1-4)GlcNAc(b1-4)GlcNAc
# Method in brief: as §1
# [25] = biological target: Neu5Gc(a2-3)Gal(b1-4)[Fuc(a1-3)]GlcNAc
# Method in brief: as §1
# [26] = biological target: Neu5Gc(a2-6)Gal(b1-4)GlcNAc
# Method in brief: as §1
# [27] = biological target: Neu5Gc(a2-6)GalNAc
# Method in brief: as §1
# [28] = biological target: Neu5Gc(a2-8)Neu5Ac(a2-3)Gal(b1-4)GlcNAc
# Method in brief: as §1
# [29] = biological target: Neu5Gc(a2-8)Neu5Gc(a2-3)Gal(b1-4)GlcNAc
# Method in brief: as §1
# [30] = biological target: Neu5Gc(a2-8)Neu5Gc(a2-3)Gal(b1-4)GlcNAc(b1-3)Gal(b1-4)GlcNAc
# Method in brief: as §1
# [31] = biological target: Neu5Gc(a2-8)Neu5Gc(a2-6)Gal(b1-4)GlcNAc
# Method in brief: as §1
# [32] = biological target: Neu5Gc(b2-6)Gal(b1-4)GlcNAc
# Method in brief: as §1
binder,measurement,setting,value
B1,glycan array binding signal (z-score),[1],0.042
same,glycan array binding signal (z-score),[2],0.238
same,glycan array binding signal (z-score),[3],-0.983
same,glycan array binding signal (z-score),[4],1.98
same,glycan array binding signal (z-score),[5],-0.46
same,glycan array binding signal (z-score),[6],-1.88
same,glycan array binding signal (z-score),[7],0.321
same,glycan array binding signal (z-score),[8],1.24
same,glycan array binding signal (z-score),[9],0.275
same,glycan array binding signal (z-score),[10],1.1
same,glycan array binding signal (z-score),[11],-0.934
same,glycan array binding signal (z-score),[12],0.267
same,glycan array binding signal (z-score),[13],0.355
same,glycan array binding signal (z-score),[14],-1.81
same,glycan array binding signal (z-score),[15],-0.113
same,glycan array binding signal (z-score),[16],-0.109
same,glycan array binding signal (z-score),[17],-0.491
same,glycan array binding signal (z-score),[18],-1.33
same,glycan array binding signal (z-score),[19],0.62
same,glycan array binding signal (z-score),[20],-0.252
same,glycan array binding signal (z-score),[21],-0.273
same,glycan array binding signal (z-score),[22],-0.925
same,glycan array binding signal (z-score),[23],-0.467
same,glycan array binding signal (z-score),[24],-0.31
same,glycan array binding signal (z-score),[25],-0.541
same,glycan array binding signal (z-score),[26],-0.005
same,glycan array binding signal (z-score),[27],0.635
same,glycan array binding signal (z-score),[28],-0.504
same,glycan array binding signal (z-score),[29],-0.336
same,glycan array binding signal (z-score),[30],-1.14
same,glycan array binding signal (z-score),[31],0.339
same,glycan array binding signal (z-score),[32],0.561

# Two entries picked at random from those above, as already listed:
binder,measurement,setting,value
B1,glycan array binding signal (z-score),[10],1.1
same,glycan array binding signal (z-score),[11],-0.934
